Laboratory results reported in PMC10763113.
No constants are given. Whether binding was seen depends on the method and setting. In cells and extracts the contact can be indirect. A yes stands for co-enrichment or nearness to the bait. Other partners may have been found. Tags and fused reporters may be left off the sequences shown.

Chains of the proteins cited; added tags and fusions are not shown.
UniProt O43143: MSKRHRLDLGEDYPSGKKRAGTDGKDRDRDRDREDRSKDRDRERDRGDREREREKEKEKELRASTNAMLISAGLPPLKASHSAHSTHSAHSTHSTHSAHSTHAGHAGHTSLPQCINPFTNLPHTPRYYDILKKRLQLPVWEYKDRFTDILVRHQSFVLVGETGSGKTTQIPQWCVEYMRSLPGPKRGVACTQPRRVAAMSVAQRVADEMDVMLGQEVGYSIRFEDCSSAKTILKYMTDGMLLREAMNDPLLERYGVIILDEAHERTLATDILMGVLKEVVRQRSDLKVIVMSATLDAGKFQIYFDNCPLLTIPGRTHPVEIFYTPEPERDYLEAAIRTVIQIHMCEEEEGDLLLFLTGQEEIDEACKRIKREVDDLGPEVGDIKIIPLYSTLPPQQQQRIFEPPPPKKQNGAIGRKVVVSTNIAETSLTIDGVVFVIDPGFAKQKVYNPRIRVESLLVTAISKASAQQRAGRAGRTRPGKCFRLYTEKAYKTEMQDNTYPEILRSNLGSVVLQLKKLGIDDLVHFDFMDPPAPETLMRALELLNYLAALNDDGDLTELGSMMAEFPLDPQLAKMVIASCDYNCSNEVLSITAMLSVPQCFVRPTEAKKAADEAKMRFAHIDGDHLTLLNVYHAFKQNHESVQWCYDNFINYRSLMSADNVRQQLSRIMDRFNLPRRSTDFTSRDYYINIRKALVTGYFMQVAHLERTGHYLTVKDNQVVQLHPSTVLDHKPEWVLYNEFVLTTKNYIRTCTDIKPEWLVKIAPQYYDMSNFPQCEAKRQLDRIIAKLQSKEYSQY

B1: Serine/arginine-rich splicing factor 7 (SRSF7) (protein, UniProt Q16629 1-238)
chain: MSRYGRYGGETKVYVGNLGTGAGKGELERAFSYYGPLRTVWIARNPPGFAFVEFEDPRDAEDAVRGLDGKVICGSRVRVELSTGMPRRSRFDRPPARRPFDPNDRCYECGEKGHYAYDCHRYSRRRRSRSRSRSHSRSRGRRYSRSRSRSRGRRSRSASPRRSRSISLRRSRSASLRRSRSGSIKGSRYFQSPSRSRSRSRSISRPRSSRSKSRSPSPKRSRSPSGSPRRSASPERMD
B2: pre-mRNA processing factor 6 (PRPF6) (protein, UniProt O94906 1-941)
chain: MNKKKKPFLGMPAPLGYVPGLGRGATGFTTRSDIGPARDANDPVDDRHAPPGKRTVGDQMKKNQAADDDDEDLNDTNYDEFNGYAGSLFSSGPYEKDDEEADAIYAALDKRMDERRKERREQREKEEIEKYRMERPKIQQQFSDLKRKLAEVTEEEWLSIPEVGDARNKRQRNPRYEKLTPVPDSFFAKHLQTGENHTSVDPRQTQFGGLNTPYPGGLNTPYPGGMTPGLMTPGTGELDMRKIGQARNTLMDMRLSQVSDSVSGQTVVDPKGYLTDLNSMIPTHGGDINDIKKARLLLKSVRETNPHHPPAWIASARLEEVTGKLQVARNLIMKGTEMCPKSEDVWLEAARLQPGDTAKAVVAQAVRHLPQSVRIYIRAAELETDIRAKKRVLRKALEHVPNSVRLWKAAVELEEPEDARIMLSRAVECCPTSVELWLALARLETYENARKVLNKARENIPTDRHIWITAAKLEEANGNTQMVEKIIDRAITSLRANGVEINREQWIQDAEECDRAGSVATCQAVMRAVIGIGIEEEDRKHTWMEDADSCVAHNALECARAIYAYALQVFPSKKSVWLRAAYFEKNHGTRESLEALLQRAVAHCPKAEVLWLMGAKSKWLAGDVPAARSILALAFQANPNSEEIWLAAVKLESENDEYERARRLLAKARSSAPTARVFMKSVKLEWVQDNIRAAQDLCEEALRHYEDFPKLWMMKGQIEEQKEMMEKAREAYNQGLKKCPHSTPLWLLLSRLEEKIGQLTRARAILEKSRLKNPKNPGLWLESVRLEYRAGLKNIANTLMAKALQECPNSGILWSEAIFLEARPQRRTKSVDALKKCEHDPHVLLAVAKLFWSQRKITKAREWFHRTVKIDSDLGDAWAFFYKFELQHGTEEQQEEVRKRCESAEPRHGELWCAVSKDIANWQKKIGDILRLVAGRIKNTF
B3: U2 small nuclear RNA auxiliary factor 1 (U2AF1) (protein, UniProt Q01081 1-240)
chain: MAEYLASIFGTEKDKVNCSFYFKIGACRHGDRCSRLHNKPTFSQTIALLNIYRNPQNSSQSADGLRCAVSDVEMQEHYDEFFEEVFTEMEEKYGEVEEMNVCDNLGDHLVGNVYVKFRREEDAEKAVIDLNNRWFNGQPIHAELSPVTDFREACCRQYEMGECTRGGFCNFMHLKPISRELRRELYGRRRKKHRSRSRSRERRSRSRDRGRGGGGGGGGGGGGRERDRRRSRDRERSGRF
B4: Serine/arginine-rich splicing factor 2 (SRSF2) (protein, UniProt Q01130 1-221)
chain: MSYGRPPPDVEGMTSLKVDNLTYRTSPDTLRRVFEKYGRVGDVYIPRDRYTKESRGFAFVRFHDKRDAEDAMDAMDGAVLDGRELRVQMARYGRPPDSHHSRRGPPPRRYGGGGYGRRSRSPRRRRRSRSRSRSRSRSRSRSRYSRSKSRSRTRSRSRSTSKSRSARRSKSKSSSVSRSRSRSRSRSRSRSPPPVSKRESKSRSRSKSPPKSPEEEGAVSS
B5: SQUAMOUS CELL CARCINOMA ANTIGEN RECOGNIZED BY T CELLS 1 (SART1) (protein, UniProt O43290 1-800)
chain: MGSSKKHRGEKEAAGTTAAAGTGGATEQPPRHREHKKHKHRSGGSGGSGGERRKRSRERGGERGSGRRGAEAEARSSTHGRERSQAEPSERRVKREKRDDGYEAAASSKTSSGDASSLSIEETNKLRAKLGLKPLEVNAIKKEAGTKEEPVTADVINPMALRQREELREKLAAAKEKRLLNQKLGKIKTLGEDDPWLDDTAAWIERSRQLQKEKDLAEKRAKLLEEMDQEFGVSTLVEEEFGQRRQDLYSARDLQGLTVEHAIDSFREGETMILTLKDKGVLQEEEDVLVNVNLVDKERAEKNVELRKKKPDYLPYAEDESVDDLAQQKPRSILSKYDEELEGERPHSFRLEQGGTADGLRERELEEIRAKLRLQAQSLSTVGPRLASEYLTPEEMVTFKKTKRRVKKIRKKEKEVVVRADDLLPLGDQTQDGDFGSRLRGRGRRRVSEVEEEKEPVPQPLPSDDTRVENMDISDEEEGGAPPPGSPQVLEEDEAELELQKQLEKGRRLRQLQQLQQLRDSGEKVVEIVKKLESRQRGWEEDEDPERKGAIVFNATSEFCRTLGEIPTYGLAGNREEQEELMDFERDEERSANGGSESDGEENIGWSTVNLDEEKQQQDFSASSTTILDEEPIVNRGLAAALLLCQNKGLLETTVQKVARVKAPNKSLPSAVYCIEDKMAIDDKYSRREEYRGFTQDFKEKDGYKPDVKIEYVDETGRKLTPKEAFRQLSHRFHGKGSGKMKTERRMKKLDEEALLKKMSSSDTPLGTVALLQEKQKAQKTPYIVLSGSGKSMNANTITK

The molecules below were run against T1, Guanylate binding protein 1 (GBP1), Flag-tagged (human) (UniProt P32455) (assay: affinity purification with mass spectrometry; CoIP-MS in Caski cells: lysate in NP-40 buffer (50 mM Tris pH 7.4, 150 mM NaCl, 1% NP-40), anti-Flag antibody or mouse IgG control, protein A/G magnetic beads, 4 °C; SDS-PAGE, silver staining, bands cut for mass spectrometry; two repeated experiments).
T1 sequence: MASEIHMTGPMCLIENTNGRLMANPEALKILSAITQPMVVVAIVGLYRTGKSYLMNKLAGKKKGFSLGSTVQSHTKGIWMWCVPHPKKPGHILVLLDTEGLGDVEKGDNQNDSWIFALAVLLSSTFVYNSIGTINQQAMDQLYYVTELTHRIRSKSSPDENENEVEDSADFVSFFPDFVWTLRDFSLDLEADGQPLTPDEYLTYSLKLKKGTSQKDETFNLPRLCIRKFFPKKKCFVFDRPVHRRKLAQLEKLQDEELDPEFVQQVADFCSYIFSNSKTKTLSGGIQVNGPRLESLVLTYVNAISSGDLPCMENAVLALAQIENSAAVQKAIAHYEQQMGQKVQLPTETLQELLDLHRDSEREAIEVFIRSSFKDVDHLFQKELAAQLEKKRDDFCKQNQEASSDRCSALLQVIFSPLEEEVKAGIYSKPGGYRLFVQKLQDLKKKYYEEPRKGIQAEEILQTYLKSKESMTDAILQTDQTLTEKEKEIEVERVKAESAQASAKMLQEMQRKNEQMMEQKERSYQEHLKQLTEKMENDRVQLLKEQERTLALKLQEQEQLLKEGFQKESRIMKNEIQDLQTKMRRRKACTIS

binding, binds:
Heterogeneous Nuclear Ribonucleoprotein K (HNRNPK) (from UniProt P61978 1-463), DHX15 (from UniProt O43143 1-795), B1, B2, B3, B4, B5
